Structures can show the parent of a compound that is named as a salt. At least one structure is not confirmed: it was looked up by name or label, or the drawing left a doubt.
Legend:
[1] = stability of sildenafil citrate during heating, NMR analysis (Example 4); assay type: physicochemical; conditions: solubilized by heating in solvent mixtures vs control in DMSO
[2] = preparation of stable solutions of similar compounds using the same methodology; assay type: physicochemical; conditions: same methodology as for sildenafil citrate

SMILES	chemical change of sildenafil citrate by NMR [1]	yielding stable solutions [2]
CCCc1nn(C)c2c(=O)[nH]c(-c3cc(S(=O)(=O)N4CCN(C)CC4)ccc3OCC)nc12 [sildenafil citrate]	no chemical change	
CN1CC(=O)N2[C@H](c3ccc4c(c3)OCO4)c3[nH]c4ccccc4c3C[C@@H]2C1=O		not successful
CCCc1nc(C)c2c(=O)[nH]c(-c3cc(S(=O)(=O)N4CCN(CC)CC4)ccc3OCC)nn12		not successful
